Reference: the supplement of paper PMC10032668
This is one part of the list. The list holds hits alone, and they repeat only in part.

Protein sequences, listed by entry. Tags and fused reporters are not part of them.
ACTL6A, O96019, UniProt O96019, whole entry: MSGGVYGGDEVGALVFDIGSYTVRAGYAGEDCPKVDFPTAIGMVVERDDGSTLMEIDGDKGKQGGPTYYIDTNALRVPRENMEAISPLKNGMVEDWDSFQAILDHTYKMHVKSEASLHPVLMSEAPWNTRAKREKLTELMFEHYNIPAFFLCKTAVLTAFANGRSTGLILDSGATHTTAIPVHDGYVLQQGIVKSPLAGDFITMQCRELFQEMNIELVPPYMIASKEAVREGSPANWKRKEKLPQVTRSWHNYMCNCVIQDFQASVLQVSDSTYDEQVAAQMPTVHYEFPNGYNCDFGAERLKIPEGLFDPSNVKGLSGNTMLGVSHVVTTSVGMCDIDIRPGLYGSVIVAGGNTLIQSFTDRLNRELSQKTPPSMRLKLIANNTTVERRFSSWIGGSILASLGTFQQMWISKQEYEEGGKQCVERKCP
DCTN5, Q9BTE1, UniProt Q9BTE1, whole entry: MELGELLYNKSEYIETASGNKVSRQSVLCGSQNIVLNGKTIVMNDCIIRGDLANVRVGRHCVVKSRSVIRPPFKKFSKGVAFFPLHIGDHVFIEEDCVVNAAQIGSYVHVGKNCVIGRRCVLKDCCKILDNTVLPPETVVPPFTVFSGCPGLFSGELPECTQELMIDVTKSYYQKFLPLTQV
RUVBL2, Q9Y230, UniProt Q9Y230, whole entry: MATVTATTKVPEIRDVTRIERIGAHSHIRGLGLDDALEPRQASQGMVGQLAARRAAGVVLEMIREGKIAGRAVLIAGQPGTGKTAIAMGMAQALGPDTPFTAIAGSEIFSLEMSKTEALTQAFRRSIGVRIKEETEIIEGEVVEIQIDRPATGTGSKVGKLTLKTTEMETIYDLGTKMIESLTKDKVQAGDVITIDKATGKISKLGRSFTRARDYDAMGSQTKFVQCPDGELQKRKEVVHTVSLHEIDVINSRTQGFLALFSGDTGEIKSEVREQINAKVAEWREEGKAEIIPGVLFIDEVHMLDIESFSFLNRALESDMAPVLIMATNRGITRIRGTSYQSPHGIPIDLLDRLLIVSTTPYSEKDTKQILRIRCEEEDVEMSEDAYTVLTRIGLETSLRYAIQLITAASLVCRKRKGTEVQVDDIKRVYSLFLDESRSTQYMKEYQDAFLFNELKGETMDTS
ATP6V1A, P38606, UniProt P38606, whole entry: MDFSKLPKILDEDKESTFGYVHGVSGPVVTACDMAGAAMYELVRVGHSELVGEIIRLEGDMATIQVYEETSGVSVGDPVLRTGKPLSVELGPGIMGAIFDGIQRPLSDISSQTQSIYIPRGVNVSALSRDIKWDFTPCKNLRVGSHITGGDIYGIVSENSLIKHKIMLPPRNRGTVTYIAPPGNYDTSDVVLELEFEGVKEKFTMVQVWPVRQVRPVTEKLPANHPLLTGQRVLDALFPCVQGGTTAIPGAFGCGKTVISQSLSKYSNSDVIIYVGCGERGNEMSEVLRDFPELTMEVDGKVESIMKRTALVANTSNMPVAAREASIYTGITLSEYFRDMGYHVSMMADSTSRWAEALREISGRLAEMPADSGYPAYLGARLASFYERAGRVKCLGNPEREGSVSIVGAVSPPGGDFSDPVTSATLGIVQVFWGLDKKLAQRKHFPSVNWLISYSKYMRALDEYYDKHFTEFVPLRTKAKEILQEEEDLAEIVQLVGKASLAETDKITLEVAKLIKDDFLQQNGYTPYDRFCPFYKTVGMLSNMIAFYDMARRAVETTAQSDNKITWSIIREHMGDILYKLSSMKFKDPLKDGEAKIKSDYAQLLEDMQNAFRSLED
CKS2, P33552, UniProt P33552, whole entry: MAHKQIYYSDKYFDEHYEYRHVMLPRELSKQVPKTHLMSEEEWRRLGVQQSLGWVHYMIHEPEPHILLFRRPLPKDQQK
EIF2S1, P05198, UniProt P05198, whole entry: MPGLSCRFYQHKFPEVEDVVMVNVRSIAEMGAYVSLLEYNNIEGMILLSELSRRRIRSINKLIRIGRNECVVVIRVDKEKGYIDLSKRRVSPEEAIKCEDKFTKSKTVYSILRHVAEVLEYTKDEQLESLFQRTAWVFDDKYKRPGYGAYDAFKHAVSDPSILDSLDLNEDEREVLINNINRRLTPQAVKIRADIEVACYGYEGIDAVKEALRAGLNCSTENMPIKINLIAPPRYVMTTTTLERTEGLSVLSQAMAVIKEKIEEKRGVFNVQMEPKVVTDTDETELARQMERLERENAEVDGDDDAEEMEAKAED
ACTN4, O43707, UniProt O43707, whole entry: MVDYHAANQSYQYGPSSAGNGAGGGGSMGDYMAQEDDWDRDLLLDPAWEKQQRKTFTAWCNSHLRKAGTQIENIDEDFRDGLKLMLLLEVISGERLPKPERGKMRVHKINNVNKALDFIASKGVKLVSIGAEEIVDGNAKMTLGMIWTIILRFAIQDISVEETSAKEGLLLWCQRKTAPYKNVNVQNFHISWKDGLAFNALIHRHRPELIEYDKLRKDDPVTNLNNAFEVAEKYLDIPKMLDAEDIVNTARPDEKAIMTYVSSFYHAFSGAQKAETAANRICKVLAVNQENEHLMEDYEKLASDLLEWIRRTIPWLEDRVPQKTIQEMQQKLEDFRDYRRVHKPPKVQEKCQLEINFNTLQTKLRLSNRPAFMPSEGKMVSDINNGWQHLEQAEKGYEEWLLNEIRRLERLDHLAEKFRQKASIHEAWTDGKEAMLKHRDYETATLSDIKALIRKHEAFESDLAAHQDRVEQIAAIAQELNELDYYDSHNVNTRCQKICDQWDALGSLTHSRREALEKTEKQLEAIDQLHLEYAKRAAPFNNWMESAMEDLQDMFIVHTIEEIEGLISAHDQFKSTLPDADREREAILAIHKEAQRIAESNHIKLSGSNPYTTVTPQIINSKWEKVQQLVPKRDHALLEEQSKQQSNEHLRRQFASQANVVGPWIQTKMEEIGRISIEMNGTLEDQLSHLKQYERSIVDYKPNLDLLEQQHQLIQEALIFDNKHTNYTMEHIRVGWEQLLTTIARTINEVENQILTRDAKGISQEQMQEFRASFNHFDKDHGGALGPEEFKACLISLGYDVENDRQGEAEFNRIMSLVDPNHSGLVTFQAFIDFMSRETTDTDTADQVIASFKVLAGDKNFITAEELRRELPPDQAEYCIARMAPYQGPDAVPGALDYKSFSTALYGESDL
ATP6V0D1, P61421, UniProt P61421, whole entry: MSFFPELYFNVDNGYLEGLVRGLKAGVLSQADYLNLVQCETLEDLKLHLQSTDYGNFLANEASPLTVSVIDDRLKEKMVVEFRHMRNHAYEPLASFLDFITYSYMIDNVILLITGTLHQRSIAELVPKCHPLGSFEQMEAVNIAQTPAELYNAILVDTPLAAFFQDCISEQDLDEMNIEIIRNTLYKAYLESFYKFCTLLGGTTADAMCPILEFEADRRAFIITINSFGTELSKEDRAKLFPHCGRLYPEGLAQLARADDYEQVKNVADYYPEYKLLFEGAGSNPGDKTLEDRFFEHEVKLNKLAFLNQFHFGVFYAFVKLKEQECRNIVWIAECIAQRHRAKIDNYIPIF
CDK9, P50750, UniProt P50750, whole entry: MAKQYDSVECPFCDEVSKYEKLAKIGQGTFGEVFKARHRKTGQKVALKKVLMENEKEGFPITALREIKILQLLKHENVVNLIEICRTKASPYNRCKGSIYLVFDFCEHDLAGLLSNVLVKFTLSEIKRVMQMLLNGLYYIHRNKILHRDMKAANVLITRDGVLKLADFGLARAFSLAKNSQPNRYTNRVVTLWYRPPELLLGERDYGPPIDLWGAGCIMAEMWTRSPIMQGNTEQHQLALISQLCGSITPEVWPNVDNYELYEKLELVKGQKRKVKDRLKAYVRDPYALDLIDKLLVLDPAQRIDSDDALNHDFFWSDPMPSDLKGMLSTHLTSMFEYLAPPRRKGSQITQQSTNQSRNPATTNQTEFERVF
MYL6, P60660, UniProt P60660, whole entry: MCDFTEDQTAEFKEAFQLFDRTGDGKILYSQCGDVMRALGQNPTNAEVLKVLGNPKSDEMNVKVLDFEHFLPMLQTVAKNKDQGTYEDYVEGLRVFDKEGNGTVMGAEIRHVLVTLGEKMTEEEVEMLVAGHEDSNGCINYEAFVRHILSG
MTPN, P58546, UniProt P58546, whole entry: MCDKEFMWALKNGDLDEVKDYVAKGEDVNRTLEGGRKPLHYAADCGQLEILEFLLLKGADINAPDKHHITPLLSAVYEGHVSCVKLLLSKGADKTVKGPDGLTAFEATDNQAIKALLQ
SP1, P08047, UniProt P08047, whole entry: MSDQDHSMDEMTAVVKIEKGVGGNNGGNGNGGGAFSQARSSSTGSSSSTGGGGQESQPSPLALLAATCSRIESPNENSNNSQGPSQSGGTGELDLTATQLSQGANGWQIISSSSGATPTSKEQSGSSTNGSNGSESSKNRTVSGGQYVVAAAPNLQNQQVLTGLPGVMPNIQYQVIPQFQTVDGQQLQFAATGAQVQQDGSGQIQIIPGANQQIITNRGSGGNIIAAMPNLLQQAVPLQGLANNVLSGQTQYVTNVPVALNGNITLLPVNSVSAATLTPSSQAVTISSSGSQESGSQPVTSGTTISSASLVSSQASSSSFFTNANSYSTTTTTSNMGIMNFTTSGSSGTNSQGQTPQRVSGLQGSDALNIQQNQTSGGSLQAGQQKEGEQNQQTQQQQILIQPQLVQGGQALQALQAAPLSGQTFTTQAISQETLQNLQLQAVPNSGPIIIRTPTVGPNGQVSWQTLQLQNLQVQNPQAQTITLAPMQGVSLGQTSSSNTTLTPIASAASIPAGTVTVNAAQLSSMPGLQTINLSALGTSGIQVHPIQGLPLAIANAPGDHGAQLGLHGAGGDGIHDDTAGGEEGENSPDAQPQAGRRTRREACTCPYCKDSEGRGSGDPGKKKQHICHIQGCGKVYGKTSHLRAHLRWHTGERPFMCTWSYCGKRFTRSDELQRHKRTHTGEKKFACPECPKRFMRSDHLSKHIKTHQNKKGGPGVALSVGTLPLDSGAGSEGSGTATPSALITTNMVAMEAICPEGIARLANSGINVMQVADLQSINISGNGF
ACTR1A, P61163, UniProt P61163, whole entry: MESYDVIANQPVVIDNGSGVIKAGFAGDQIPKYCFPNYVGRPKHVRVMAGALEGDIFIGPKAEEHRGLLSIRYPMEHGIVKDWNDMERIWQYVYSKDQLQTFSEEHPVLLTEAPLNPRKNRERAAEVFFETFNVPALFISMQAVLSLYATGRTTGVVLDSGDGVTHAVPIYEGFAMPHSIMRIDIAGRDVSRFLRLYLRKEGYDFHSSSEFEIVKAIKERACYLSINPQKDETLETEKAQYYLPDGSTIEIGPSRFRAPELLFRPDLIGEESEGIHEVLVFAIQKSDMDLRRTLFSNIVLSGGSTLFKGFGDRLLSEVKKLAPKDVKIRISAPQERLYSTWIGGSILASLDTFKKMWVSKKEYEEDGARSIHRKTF
PDLIM7, Q9NR12, UniProt Q9NR12, whole entry: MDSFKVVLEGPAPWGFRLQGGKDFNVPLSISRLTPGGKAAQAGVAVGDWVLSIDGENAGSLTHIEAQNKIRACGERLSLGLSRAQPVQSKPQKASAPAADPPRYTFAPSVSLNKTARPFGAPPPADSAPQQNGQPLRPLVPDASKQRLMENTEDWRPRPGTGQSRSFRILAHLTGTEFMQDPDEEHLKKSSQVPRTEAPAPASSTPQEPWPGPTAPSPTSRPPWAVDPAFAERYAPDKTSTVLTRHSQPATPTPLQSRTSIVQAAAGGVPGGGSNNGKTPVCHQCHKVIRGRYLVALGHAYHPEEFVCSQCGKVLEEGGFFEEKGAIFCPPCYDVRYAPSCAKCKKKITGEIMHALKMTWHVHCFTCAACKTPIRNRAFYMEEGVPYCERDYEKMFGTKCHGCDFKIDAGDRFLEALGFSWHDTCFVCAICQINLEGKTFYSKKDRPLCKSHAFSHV
RAB7A, P51149, UniProt P51149, whole entry: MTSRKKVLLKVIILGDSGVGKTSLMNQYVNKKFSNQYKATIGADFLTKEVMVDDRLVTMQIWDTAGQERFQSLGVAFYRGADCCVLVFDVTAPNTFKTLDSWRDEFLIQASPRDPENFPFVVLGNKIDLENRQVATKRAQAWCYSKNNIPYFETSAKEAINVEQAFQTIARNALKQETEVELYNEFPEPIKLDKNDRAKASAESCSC
TUBA1C, Q9BQE3, UniProt Q9BQE3, whole entry: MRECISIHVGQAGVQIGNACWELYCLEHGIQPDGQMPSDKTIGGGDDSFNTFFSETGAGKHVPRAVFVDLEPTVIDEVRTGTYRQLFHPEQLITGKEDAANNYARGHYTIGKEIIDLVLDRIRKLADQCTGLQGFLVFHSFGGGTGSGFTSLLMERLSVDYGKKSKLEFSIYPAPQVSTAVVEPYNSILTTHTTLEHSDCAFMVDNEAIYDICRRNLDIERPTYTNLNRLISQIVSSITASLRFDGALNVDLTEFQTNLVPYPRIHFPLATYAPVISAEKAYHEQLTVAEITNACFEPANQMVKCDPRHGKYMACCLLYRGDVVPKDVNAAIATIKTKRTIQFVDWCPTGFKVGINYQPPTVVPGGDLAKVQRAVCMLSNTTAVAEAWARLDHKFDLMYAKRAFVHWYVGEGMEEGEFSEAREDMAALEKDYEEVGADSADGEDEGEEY

Assays:
Assay in all cases: PRISMA enrichment of interactor (LFQ) in peptide spot vs all other peptide spots (log2 fold change); higher = stronger / more specific binding of the interactor to the peptide
[1] = biological target: UPF1, Q92900
Experimental: (§1)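 PRISMA: 15-aa overlapping tiles (offset 8 aa) of 60 microproteins, plus SOS1/GLUT1 control peptides, were spot-synthesized on cellulose membranes in triplicate. Membranes were incubated with benzonase-treated HEK293T lysate, and bound proteins were identified by LC-MS/MS with LFQ. Enrichment is the log2 fold change of each protein in one spot versus all other spots. Only interactors passing the significance cutoff are listed.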

[2] = biological target: ACTL6A, O96019
Experimental: as §1

[3] = biological target: ARL6IP5, O75915
Experimental: as §1

[4] = biological target: DCTN5, Q9BTE1
Experimental: as §1

[5] = biological target: FANCI, Q9NVI1
Experimental: as §1

[6] = biological target: FBXO3, Q9UK99
Experimental: as §1

[7] = biological target: GLYR1, Q49A26
Experimental: as §1

[8] = biological target: LETM1, O95202
Experimental: as §1

[9] = biological target: MCRIP1, C9JLW8
Experimental: as §1

[10] = biological target: RAB8A, P61006
Experimental: as §1

[11] = biological target: RER1, O15258
Experimental: as §1

[12] = biological target: RPRD1A, Q96P16
Experimental: as §1

[13] = biological target: RUVBL2, Q9Y230
Experimental: as §1

[14] = biological target: SAFB2, Q14151
Experimental: as §1

[15] = biological target: SAP18, O00422
Experimental: as §1

[16] = biological target: SNRPF, P62306
Experimental: as §1

[17] = biological target: ZCCHC17, Q9NP64
Experimental: as §1

[18] = biological target: AQR, O60306
Experimental: as §1

[19] = biological target: ATP6V1A, P38606
Experimental: as §1

[20] = biological target: C19orf53, Q9UNZ5
Experimental: as §1

[21] = biological target: CDCA7L, Q96GN5
Experimental: as §1

[22] = biological target: CKS2, P33552
Experimental: as §1

[23] = biological target: COPS3, Q9UNS2
Experimental: as §1

[24] = biological target: CXorf56, Q9H5V9
Experimental: as §1

[25] = biological target: EIF2S1, P05198
Experimental: as §1

[26] = biological target: HAGH, Q16775
Experimental: as §1

[27] = biological target: MRPS14, O60783
Experimental: as §1

[28] = biological target: MRPS9, P82933
Experimental: as §1

[29] = biological target: MTG2, Q9H4K7
Experimental: as §1

[30] = biological target: RARS, P54136
Experimental: as §1

[31] = biological target: TARS, P26639
Experimental: as §1

[32] = biological target: TMEM256-PLSCR3
Experimental: as §1

[33] = biological target: UBTF, P17480
Experimental: as §1

[34] = biological target: WDR5, P61964
Experimental: as §1

[35] = biological target: ACTN4, O43707
Experimental: as §1

[36] = biological target: ATP6V0D1, P61421
Experimental: as §1

[37] = biological target: CDK9, P50750
Experimental: as §1

[38] = biological target: CGN, Q9P2M7
Experimental: as §1

[39] = biological target: GPAT4, Q86UL3
Experimental: as §1

[40] = biological target: MYL6, P60660
Experimental: as §1

[41] = biological target: PEX11B, O96011
Experimental: as §1

[42] = biological target: PRRC2C, Q9Y520
Experimental: as §1

[43] = biological target: STMN3, Q9NZ72
Experimental: as §1

[44] = biological target: UBAC2, Q8NBM4
Experimental: as §1

[45] = biological target: UFL1, O94874
Experimental: as §1

[46] = biological target: UTP3, Q9NQZ2
Experimental: as §1

[47] = biological target: ASPM, Q8IZT6
Experimental: as §1

[48] = biological target: ATP5MF, P56134
Experimental: as §1

[49] = biological target: CDK8, P49336
Experimental: as §1

[50] = biological target: CHMP4B, Q9H444
Experimental: as §1

[51] = biological target: GMNN, O75496
Experimental: as §1

[52] = biological target: MTPN, P58546
Experimental: as §1

[53] = biological target: PDP1, Q9P0J1
Experimental: as §1

[54] = biological target: RPN2, P04844
Experimental: as §1

[55] = biological target: SCYL1, Q96KG9
Experimental: as §1

[56] = biological target: SHMT1, P34896
Experimental: as §1

[57] = biological target: SLU7, O95391
Experimental: as §1

[58] = biological target: CC2D1A, Q6P1N0
Experimental: as §1

[59] = biological target: HEATR3, Q7Z4Q2
Experimental: as §1

[60] = biological target: L2HGDH, Q9H9P8
Experimental: as §1

[61] = biological target: MRPL44, Q9H9J2
Experimental: as §1

[62] = biological target: NEPRO, Q6NW34
Experimental: as §1

[63] = biological target: NUP58, Q9BVL2
Experimental: as §1

[64] = biological target: PRRC2B, Q5JSZ5
Experimental: as §1

[65] = biological target: QRICH1, Q2TAL8
Experimental: as §1

[66] = biological target: SP1, P08047
Experimental: as §1

[67] = biological target: ACTR1A, P61163
Experimental: as §1

[68] = biological target: DHX15, O43143
Experimental: as §1

[69] = biological target: EWSR1, Q01844
Experimental: as §1

[70] = biological target: FAM98A, Q8NCA5
Experimental: as §1

[71] = biological target: GIGYF2, Q6Y7W6
Experimental: as §1

[72] = biological target: GOLPH3L, Q9H4A5
Experimental: as §1

[73] = biological target: GTF2F1, P35269
Experimental: as §1

[74] = biological target: HSPA4, P34932
Experimental: as §1

[75] = biological target: MACF1
Experimental: as §1

[76] = biological target: MEPCE, Q7L2J0
Experimental: as §1

[77] = biological target: MKI67, P46013
Experimental: as §1

[78] = biological target: MLEC, Q14165
Experimental: as §1

[79] = biological target: MRPL49, Q13405
Experimental: as §1

[80] = biological target: NIFK, Q9BYG3
Experimental: as §1

[81] = biological target: NUFIP2, Q7Z417
Experimental: as §1

[82] = biological target: PDLIM7, Q9NR12
Experimental: as §1

[83] = biological target: PFKM, P08237
Experimental: as §1

[84] = biological target: PSME3, P61289
Experimental: as §1

[85] = biological target: RAB7A, P51149
Experimental: as §1

[86] = biological target: SEC61G, P60059
Experimental: as §1

[87] = biological target: SEC63, Q9UGP8
Experimental: as §1

[88] = biological target: SNX5, Q9Y5X3
Experimental: as §1

[89] = biological target: SSR3, Q9UNL2
Experimental: as §1

[90] = biological target: TUBA1C, Q9BQE3
Experimental: as §1

[91] = biological target: WDR12, Q9GZL7
Experimental: as §1

Binder: MAAFARSAITASLRG [JPX]
- PRISMA enrichment of interactor (log2) [1]: 4.58

Binder: EAVSVIRMHWAPRSW [SLCO5A1]
- PRISMA enrichment of interactor (log2) [2]: 6.04
- PRISMA enrichment of interactor (log2) [3]: 4.51
- PRISMA enrichment of interactor (log2) [4]: 4.8
- PRISMA enrichment of interactor (log2) [5]: 5.41
- PRISMA enrichment of interactor (log2) [6]: 5.86
- PRISMA enrichment of interactor (log2) [7]: 4.9
- PRISMA enrichment of interactor (log2) [8]: 6.36
- PRISMA enrichment of interactor (log2) [9]: 4.73
- PRISMA enrichment of interactor (log2) [10]: 8.82
- PRISMA enrichment of interactor (log2) [11]: 4.64
- PRISMA enrichment of interactor (log2) [12]: 7.14
- PRISMA enrichment of interactor (log2) [13]: 7.06
- PRISMA enrichment of interactor (log2) [14]: 5.23
- PRISMA enrichment of interactor (log2) [15]: 4.81
- PRISMA enrichment of interactor (log2) [16]: 6.6
- PRISMA enrichment of interactor (log2) [17]: 6.66

Binder: EMSMDSQLVWRLLTD [NAV2-AS2]
- PRISMA enrichment of interactor (log2) [2]: 5.98
- PRISMA enrichment of interactor (log2) [18]: 3.88
- PRISMA enrichment of interactor (log2) [19]: 7.43
- PRISMA enrichment of interactor (log2) [20]: 6.39
- PRISMA enrichment of interactor (log2) [21]: 6.79
- PRISMA enrichment of interactor (log2) [22]: 4.52
- PRISMA enrichment of interactor (log2) [23]: 5.73
- PRISMA enrichment of interactor (log2) [24]: 5.26
- PRISMA enrichment of interactor (log2) [25]: 6.24
- PRISMA enrichment of interactor (log2) [26]: 6.74
- PRISMA enrichment of interactor (log2) [27]: 4.84
- PRISMA enrichment of interactor (log2) [28]: 5.25
- PRISMA enrichment of interactor (log2) [29]: 4.18
- PRISMA enrichment of interactor (log2) [30]: 4.42
- PRISMA enrichment of interactor (log2) [31]: 4.18
- PRISMA enrichment of interactor (log2) [32]: 5.11
- PRISMA enrichment of interactor (log2) [33]: 5.64
- PRISMA enrichment of interactor (log2) [34]: 5.97

Binder: ECAKEHTDTEQTGHL [RP11-620J15.3]
- PRISMA enrichment of interactor (log2) [35]: 4.72
- PRISMA enrichment of interactor (log2) [36]: 5.65
- PRISMA enrichment of interactor (log2) [37]: 8.71
- PRISMA enrichment of interactor (log2) [38]: 5.63
- PRISMA enrichment of interactor (log2) [39]: 6.44
- PRISMA enrichment of interactor (log2) [40]: 6.14
- PRISMA enrichment of interactor (log2) [41]: 4.27
- PRISMA enrichment of interactor (log2) [42]: 5.96
- PRISMA enrichment of interactor (log2) [11]: 7.9
- PRISMA enrichment of interactor (log2) [43]: 4.78
- PRISMA enrichment of interactor (log2) [44]: 5.09
- PRISMA enrichment of interactor (log2) [45]: 6.98
- PRISMA enrichment of interactor (log2) [46]: 4.53

Binder: NNAMRFAHSWVTLVI [LINC01128]
- PRISMA enrichment of interactor (log2) [35]: 4.9
- PRISMA enrichment of interactor (log2) [47]: 4.14
- PRISMA enrichment of interactor (log2) [48]: 5.66
- PRISMA enrichment of interactor (log2) [49]: 4.5
- PRISMA enrichment of interactor (log2) [50]: 4.84
- PRISMA enrichment of interactor (log2) [51]: 3.87
- PRISMA enrichment of interactor (log2) [52]: 5.63
- PRISMA enrichment of interactor (log2) [53]: 4.18
- PRISMA enrichment of interactor (log2) [54]: 4.93
- PRISMA enrichment of interactor (log2) [55]: 5.56
- PRISMA enrichment of interactor (log2) [56]: 5.77
- PRISMA enrichment of interactor (log2) [57]: 3.91

Binder: RDYKVLVVMVPLVGL [MKKS]
- PRISMA enrichment of interactor (log2) [35]: 4.77
- PRISMA enrichment of interactor (log2) [58]: 5.58
- PRISMA enrichment of interactor (log2) [59]: 4.67
- PRISMA enrichment of interactor (log2) [60]: 4.1
- PRISMA enrichment of interactor (log2) [61]: 5.88
- PRISMA enrichment of interactor (log2) [62]: 5.72
- PRISMA enrichment of interactor (log2) [63]: 4.31
- PRISMA enrichment of interactor (log2) [64]: 4.62
- PRISMA enrichment of interactor (log2) [65]: 5.13
- PRISMA enrichment of interactor (log2) [66]: 3.94

Binder: MASVNLSFSFSRPSH [LINC00881]
- PRISMA enrichment of interactor (log2) [67]: 6.46
- PRISMA enrichment of interactor (log2) [68]: 4.92
- PRISMA enrichment of interactor (log2) [69]: 6.06
- PRISMA enrichment of interactor (log2) [70]: 8.33
- PRISMA enrichment of interactor (log2) [71]: 4.56
- PRISMA enrichment of interactor (log2) [72]: 7.27
- PRISMA enrichment of interactor (log2) [73]: 4.53
- PRISMA enrichment of interactor (log2) [74]: 4.95
- PRISMA enrichment of interactor (log2) [75]: 6.18
- PRISMA enrichment of interactor (log2) [76]: 5.65
- PRISMA enrichment of interactor (log2) [77]: 6.01
- PRISMA enrichment of interactor (log2) [78]: 5.03
- PRISMA enrichment of interactor (log2) [79]: 4.37
- PRISMA enrichment of interactor (log2) [80]: 5.01
- PRISMA enrichment of interactor (log2) [81]: 7.55
- PRISMA enrichment of interactor (log2) [82]: 6.34
- PRISMA enrichment of interactor (log2) [83]: 4.9
- PRISMA enrichment of interactor (log2) [84]: 4.91
- PRISMA enrichment of interactor (log2) [85]: 6.99
- PRISMA enrichment of interactor (log2) [86]: 8.09
- PRISMA enrichment of interactor (log2) [87]: 5.71
- PRISMA enrichment of interactor (log2) [88]: 4.29
- PRISMA enrichment of interactor (log2) [89]: 5.42
- PRISMA enrichment of interactor (log2) [90]: 8.56
- PRISMA enrichment of interactor (log2) [91]: 4.63
